Reference: publication doi:10.1101/2023.08.05.550684
These are yes or no findings as the source states them, for the method shown. Some results given as binding are weak or reduced against the parent protein; the word gives no strength. Where a sequence is shown, tags or fusion partners need not be part of it.

Molecular target: T1, Saccharomyces cerevisiae PCS60 (ScPCS60) (S. cerevisiae) (UniProt P38137)
T1 sequence: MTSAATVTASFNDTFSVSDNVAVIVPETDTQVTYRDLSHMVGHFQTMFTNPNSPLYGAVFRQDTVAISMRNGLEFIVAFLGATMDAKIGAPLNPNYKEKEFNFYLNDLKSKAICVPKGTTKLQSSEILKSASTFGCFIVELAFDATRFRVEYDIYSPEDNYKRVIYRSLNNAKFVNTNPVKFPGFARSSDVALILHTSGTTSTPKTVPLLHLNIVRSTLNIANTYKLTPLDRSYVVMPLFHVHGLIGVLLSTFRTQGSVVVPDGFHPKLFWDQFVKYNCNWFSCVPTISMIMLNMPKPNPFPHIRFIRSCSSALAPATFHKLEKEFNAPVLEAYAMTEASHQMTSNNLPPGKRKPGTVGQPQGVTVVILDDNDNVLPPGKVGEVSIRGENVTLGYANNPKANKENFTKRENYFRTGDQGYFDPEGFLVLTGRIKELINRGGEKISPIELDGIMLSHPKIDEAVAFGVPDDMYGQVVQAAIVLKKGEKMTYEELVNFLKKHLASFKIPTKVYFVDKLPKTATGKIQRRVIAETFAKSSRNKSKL
Assay: two-hybrid

B1: Saccharomyces cerevisiae PEX5 (ScPEX5) (protein, UniProt P35056 1-612)
chain: MDVGSCSVGNNPLAQLHKHTQQNKSLQFNQKNNGRLNESPLQGTNKPGISEAFISNVNAISQENMANMQRFINGEPLIDDKRRMEIGPSSGRLPPFSNVHSLQTSANPTQIKGVNDISHWSQEFQGSNSIQNRNADTGNSEKAWQRGSTTASSRFQYPNTMMNNYAYASMNSLSGSRLQSPAFMNQQQSGRSKEGVNEQEQQPWTDQFEKLEKEVSENLDINDEIEKEENVSEVEQNKPETVEKEEGVYGDQYQSDFQEVWDSIHKDAEEVLPSELVNDDLNLGEDYLKYLGGRVNGNIEYAFQSNNEYFNNPNAYKIGCLLMENGAKLSEAALAFEAAVKEKPDHVDAWLRLGLVQTQNEKELNGISALEECLKLDPKNLEAMKTLAISYINEGYDMSAFTMLDKWAETKYPEIWSRIKQQDDKFQKEKGFTHIDMNAHITKQFLQLANNLSTIDPEIQLCLGLLFYTKDDFDKTIDCFESALRVNPNDELMWNRLGASLANSNRSEEAIQAYHRALQLKPSFVRARYNLAVSSMNIGCFKEAAGYLLSVLSMHEVNTNNKKGDVGSLLNTYNDTVIETLKRVFIAMNRDDLLQEVKPGMDLKRFKGEFSF
- binding: binds
